# Measured values taken from PubChem BioAssay AID2685 (National Center for Advancing Translational Sciences (NCATS), 2010).
# The campaign covered roughly 320,000 compounds. About 2,100 (0.66%) were called active. Inconclusive means that the source gave no clear call. Such entries were picked first, then a sample of the others. Calls come from the whole dose curve; as a rule, active = well fitted inhibition curve with a large enough effect in the signal ratio, with a control signal flat (not every such curve was filed as active); inconclusive = small, poorly fitted or top-dose-only effect, or effect the other way, or a change in a side signal; inactive = flat fitted curve, though single readings scatter; the % refers to the signal ratio. Potencies of inconclusive entries are doubtful fits and often do not repeat.
# Test: qHTS Assay for Lipid Storage Modulators in Drosophila S3 Cells
# Details: BODIPY lipid droplet fluorescence, 18-24 h, cells fed with added oleic acid; lipid storage change, negative = inhibition: at 46.1 µM (top of the series) unless noted
# Method in brief: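 Drosophila S3 cells got compounds at several concentrations plus oleic acid (400 uM solution). Laser-scanning cytometry with 488 nm excitation read lipid droplets at 500-530 nm and cells at 575-640 nm. Percent activity was relative to 20 uM Triacsin C.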
# % is set by controls: 0 for no effect and ±100 for the full control effect; potency is the fitted concentration of half-maximal effect.
SMILES,"lipid storage change, negative = inhibition",Potency,outcome
Fc1cccc(Cl)c1CSc1nnc(CN2CCOCC2)n1-c1ccccc1,inconclusive: 8.6%,–,–
Nc1nonc1-n1nnc(C(=O)N/N=C/c2ccccc2Cl)c1COc1ccc(F)cc1,–,"inconclusive: 0.103 µM [rising, full curve]",–
O=S(=O)(c1ccc(SCc2cccc(Cl)c2)nc1)N1CCCC1,inconclusive: 13.2%,–,–
Nc1nc(Nc2ccccc2)n[nH]1,inconclusive: -0.0668%,–,–
COc1ccc(C(=O)OCC(=O)Nc2sccc2C(N)=O)cc1[N+](=O)[O-],–,"inconclusive: 29.1 µM [activator, single point]",–
Cc1ccc(NC(=O)c2oc3ccc(S(=O)(=O)N4CCOCC4)cc3c2C)c(C)c1,inconclusive: 3.95%,–,–
C[C@H]1CN=C(Nc2ccccc2)N1CCC1CCCC1,–,"inconclusive: 25.9 µM [falling, single point]",–
Cc1ccc(NC(=O)CSc2nnc(C3CC3)n2CC2CCCO2)cc1C (configuration not stated),–,"inconclusive: 29.1 µM [activator, single point]",–
O=C(CCn1nc(-c2ccccc2)c2ccccc2c1=O)N1CCN(c2ccccc2)CC1,–,"inconclusive: 0.92 µM [activator, partial curve]",–
COc1ccc(Cl)cc1C(=O)Nc1ccccc1N1CCCCC1,inactive: 24.2%,–,–
CCCCNC(=O)Nc1nc2ccccc2s1,inconclusive: 10.3%,–,–
Cc1cc(-c2nnc(-c3ccccc3)c(-c3ccccc3)n2)c(C)o1,–,"inconclusive: 20.6 µM [activator, single point]",–
O=C(/C=C/Nc1ccccc1O)c1ccco1,inconclusive: 11.9%,–,–
O=C(NCc1ccccc1)C1CCCN1C(=O)Nc1ccccc1[N+](=O)[O-] (configuration not stated),–,active: 0.731 µM,–
COc1cc2c(cc1OC)CN(C(=O)CN(C)S(=O)(=O)c1ccc(NC(C)=O)cc1)CC2,inconclusive: 37.8%,–,–
Cc1ccccc1-c1nc(CN2CCN(C(=O)c3ccco3)CC2)c(C)o1,inconclusive: 7.06%,–,–
Cc1ccc(NC(=O)c2c(-c3ccccc3Cl)noc2C)nc1,inconclusive: 6.53%,–,–
COc1ccc(OCCOC(=O)CNC(=O)c2ccc(Cl)cc2Cl)cc1,–,"inconclusive: 0.517 µM [activator, full curve]",–
CCCN(CCC)c1nc(-c2ccccn2)nc2ccccc12,inconclusive: -59.2%,–,–
O=C(NC1CCCCC1)N1CCN(c2ccc([N+](=O)[O-])cc2)CC1,–,"inconclusive: 29.1 µM [falling, single point]",–
CC1(C)CC(=O)C=C(Nc2ccc(F)cc2)C1,–,–,inactive [at 46.1 µM]
O=C(NCc1ccccn1)c1ccc(NC(=O)c2ccco2)cc1,inconclusive: 24.1%,–,–
COC(=O)C1CCN(CC(=O)NC(=O)NC2CCCCC2)CC1,inconclusive: 64.4%,–,–
O=C1C2C3C=CC(C3)C2C(=O)N1c1ccncc1 (configuration not stated),inconclusive: -17%,–,–
Nc1ccc(C(=O)N/N=C/c2cccc(Oc3ccccc3)c2)cc1,inconclusive: -45%,–,–
CCOc1ccc(-n2c(Cc3cc(=O)[nH]c(=O)[nH]3)nnc2SCC(=O)OC)cc1,inconclusive: -41%,–,–

SMILES,"lipid storage change, negative = inhibition",Potency,outcome
c1ccc2c(c1)CCCc1cc(NCCN3CCOCC3)nnc1-2,inconclusive: 24.5%,–,–
O=c1c2ccccc2nc2n1C(CSCc1ccccc1)CS2 (configuration not stated),–,"inconclusive: 11.6 µM [falling, single point]",–
CN1CCN(C(=O)C2=C[C@@H](C3CC3)C[C@@H](OCc3ccc(CO)cc3)O2)CC1,inconclusive: -13.7%,–,–
Cc1cc(NC(=O)CC(F)(F)F)n(-c2ccccc2)n1,inconclusive: -23.4%,–,–
NC(=O)c1ccccc1NC(=O)CS(=O)(=O)Cc1ccccc1,inconclusive: 11.9%,–,–
CCOC(=O)c1ccc(N2NC(=O)/C(=C/c3ccc(OC(=O)c4ccco4)c(OC)c3)C2=O)cc1,inconclusive: -90.3%,–,–
CCN(Cc1nc2cc(Cl)ccc2c(=O)[nH]1)C(=O)c1cccc(OCc2c(C)noc2C)c1,–,"inconclusive: 0.461 µM [falling, partial curve, poor fit]",–
CCc1nnc(NS(=O)(=O)c2ccc(NC(=S)Nc3ccc(F)cc3)cc2)s1,–,"inconclusive: 29.1 µM [rising, single point]",–
CCOC(=O)C1=C(C)NC(=O)NC1c1c(O)ccc2ccccc12 (configuration not stated),–,"inconclusive: 29.1 µM [falling, partial curve, poor fit]",–
CCOc1ccc(N(CC(=O)NC2CCCCC2)C(=O)CCC(=O)Nc2nccs2)cc1,inconclusive: -33.1%,–,–
CCn1c(O)c(C=NCc2cccs2)c(=O)n(CC)c1=S,inconclusive: 6.04%,–,–
CCN(CC)S(=O)(=O)c1ccc(N2CCOCC2)c(NC(=O)c2ccccc2)c1,–,"inconclusive: 4.61 µM [activator, partial curve]",–
CCc1cccc(NC(=O)CCS(=O)(=O)c2cc3c(cc2C)NC(=O)CO3)c1,inconclusive: -1.02%,–,–
Cc1cc(C)nc(N/N=C/c2c(CO)cnc(C)c2O)n1,–,"inconclusive: 0.146 µM [activator, full curve, poor fit]",–
CCOC(=O)c1c(-c2ccccc2)oc2ccc(OCC(=O)NN)cc12,–,"inconclusive: 18.4 µM [falling, single point]",–
Cc1cccc(C)c1NC(=O)NC1(C(=O)N2CCN3CCCC3C2)CCCCC1 (configuration not stated),inconclusive: -30.7%,–,–
CCCCN(C(=O)c1cccc(S(=O)(=O)N2CC(C)OC(C)C2)c1)c1c(N)n(CCCC)c(=O)[nH]c1=O (configuration not stated),inactive: 7.24%,–,–
COc1ccc(-n2nc(C(=O)NCC(=O)N3CCN(c4ccccc4F)CC3)c3ccccc3c2=O)cc1,inconclusive: -140%,–,–
CCOC(=O)/C=C1\SCC(=O)N1CC(=O)NC(c1ccccc1)c1ccccc1,–,"inconclusive: 7.31 µM [falling, partial curve, poor fit]",–
COCCNS(=O)(=O)c1cc(OC)c(C)cc1C,inconclusive: 15.1%,–,–
COc1ccc(NC(=O)CCNS(=O)(=O)c2cc(Br)cnc2N)cc1OC,inconclusive: 23.1%,–,–
CC(C)Cn1c(N)c(C(=O)COC(=O)c2ccc3c(c2)OCCO3)c(=O)n(C)c1=O,–,"inconclusive: 1.64 µM [rising, partial curve]",–
O=C(O)c1cccc(CSc2ncccn2)c1,–,"inconclusive: 5.17 µM [falling, full curve, poor fit]",–
Cc1cc(C)n(-c2nnc(C)n2/N=C/c2ccccc2F)n1,–,–,inactive [at 46.1 µM]
CC(C)c1ccc(S(=O)(=O)N2CCN(C(=O)CCNS(=O)(=O)c3ccccc3F)CC2)cc1,inconclusive: 11.3%,–,–
O=C(NCc1ccccc1F)C1CCN(C(=O)NCc2ccccc2)CC1,inconclusive: -9.98%,–,–

SMILES,"lipid storage change, negative = inhibition",Potency,outcome
Cc1c(C)c2c(OCC(=O)Nc3ccc(CCO)cc3)cc3c(c2oc1=O)CCC(C)(C)O3,–,"inconclusive: 1.16 µM [falling, full curve, poor fit]",–
Cn1c(N)c(C(=O)COC(=O)c2ccccc2NCc2ccco2)c(=O)n(C)c1=O,inconclusive: 48.3%,–,–
COc1cccc(NC(=O)C(=O)NCCC2CCCCN2S(=O)(=O)c2ccccc2)c1 (configuration not stated),–,active: 9.2 µM,–
CCOc1ccc(NC(=O)C2CC(=O)N3CCCN=C3S2)cc1 (configuration not stated),–,"inconclusive: 29.1 µM [activator, single point]",–
COc1ccc(/C=C/C(=O)Nc2nc(N)n(-c3ccccc3)n2)cc1,–,"inconclusive: 0.0046 µM [activator, full curve]",–
CCN(CC)Cc1c(C(=O)N/N=C/c2c(Cl)cccc2Cl)nnn1-c1nonc1N,–,"inconclusive: 5.17 µM [falling, single point]",–
O=C(CSc1ccccc1C(=O)NCCCN1CCCC1=O)NCc1ccco1,inconclusive: 11%,–,–
COc1ccc([N+](=O)[O-])cc1NC(=O)CSc1ccccc1,inconclusive: 183%,–,–
CN(C)S(=O)(=O)c1cccc(C(=O)OCC(=O)Nc2ccccc2OC(F)F)c1,inconclusive: 25.1% [at 9.22 µM],–,–
Clc1ccc(Oc2nnnn2-c2ccccc2)cc1,inconclusive: 22.5%,–,–
CCCNc1c(F)c(F)c2c(C)c3ccccc3nc2c1F,–,active: 14.6 µM,–
O=C(O)Cn1cc2c(n1)CCCC2,inconclusive: -40.5%,–,–
CC(C)c1nc2ccccc2n1CCC(=O)O,–,active: 16.4 µM,–
NC1=NC(=O)C2(COC(c3cccc([N+](=O)[O-])c3)OC2)S1 (configuration not stated),inconclusive: -14.4%,–,–
COC(=O)c1ccc(C(=O)OC)c(NC(=S)N2CC(C)CC(C)C2)c1 (configuration not stated),inconclusive: 28.4%,–,–
Cc1nc(N2CCOCC2)nc(OCCN(C)C)c1[N+](=O)[O-],inconclusive: 24.3%,–,–
COc1ccc(CCNC(=S)N2CCN(S(=O)(=O)c3ccc(Cl)cc3)CC2)cc1,inconclusive: -49.5%,–,–
CCC(Sc1nc(C)cc(=O)[nH]1)C(=O)Nc1nc2c(s1)CCCC2 (configuration not stated),–,active: 14.6 µM,–
Cc1cccn2c(=O)c3cc(C(=O)NCC(C)C)sc3nc12,inconclusive: 41.6%,–,–
COc1ccccc1C(=O)NC(=O)COC(=O)c1ccc(Cl)cc1[N+](=O)[O-],–,"inconclusive: 29.1 µM [activator, single point]",–
COc1ccc(S(=O)(=O)N2CCCC2CNC(=O)C(=O)NCc2ccccc2Cl)cc1 (configuration not stated),inconclusive: 55.2%,–,–
O=C(c1ccncc1)N1CCN(c2cccc(C(F)(F)F)c2)CC1,–,"inconclusive: 11.6 µM [rising, partial curve]",–
CC(=O)CSc1nc2c(c(=O)[nH]c(=O)n2C)n1Cc1cccc(Br)c1,–,"inconclusive: 18.4 µM [falling, single point]",–
Cc1ccc(C(=O)Cn2c(-c3ccccc3)noc2=O)cc1,inconclusive: 7.87%,–,–
COc1ccccc1N(CC(O)CN1C(=O)NC(C)(C)C1=O)S(=O)(=O)c1ccc(C)cc1 (configuration not stated),–,"inconclusive: 32.6 µM [falling, partial curve, poor fit]",–

# Shown with tabs: part of the list above.
SMILES	lipid storage change, negative = inhibition	Potency	outcome
Cc1c(C)c2c(OCC(=O)Nc3ccc(CCO)cc3)cc3c(c2oc1=O)CCC(C)(C)O3	–	inconclusive: 1.16 µM [falling, full curve, poor fit]	–
Cn1c(N)c(C(=O)COC(=O)c2ccccc2NCc2ccco2)c(=O)n(C)c1=O	inconclusive: 48.3%	–	–
COc1cccc(NC(=O)C(=O)NCCC2CCCCN2S(=O)(=O)c2ccccc2)c1 (configuration not stated)	–	active: 9.2 µM	–
COc1ccc(/C=C/C(=O)Nc2nc(N)n(-c3ccccc3)n2)cc1	–	inconclusive: 0.0046 µM [activator, full curve]	–
O=C(CSc1ccccc1C(=O)NCCCN1CCCC1=O)NCc1ccco1	inconclusive: 11%	–	–
COc1ccc([N+](=O)[O-])cc1NC(=O)CSc1ccccc1	inconclusive: 183%	–	–
CCCNc1c(F)c(F)c2c(C)c3ccccc3nc2c1F	–	active: 14.6 µM	–
NC1=NC(=O)C2(COC(c3cccc([N+](=O)[O-])c3)OC2)S1 (configuration not stated)	inconclusive: -14.4%	–	–
COC(=O)c1ccc(C(=O)OC)c(NC(=S)N2CC(C)CC(C)C2)c1 (configuration not stated)	inconclusive: 28.4%	–	–
COc1ccc(CCNC(=S)N2CCN(S(=O)(=O)c3ccc(Cl)cc3)CC2)cc1	inconclusive: -49.5%	–	–
CCC(Sc1nc(C)cc(=O)[nH]1)C(=O)Nc1nc2c(s1)CCCC2 (configuration not stated)	–	active: 14.6 µM	–
Cc1cccn2c(=O)c3cc(C(=O)NCC(C)C)sc3nc12	inconclusive: 41.6%	–	–
COc1ccccc1C(=O)NC(=O)COC(=O)c1ccc(Cl)cc1[N+](=O)[O-]	–	inconclusive: 29.1 µM [activator, single point]	–
O=C(c1ccncc1)N1CCN(c2cccc(C(F)(F)F)c2)CC1	–	inconclusive: 11.6 µM [rising, partial curve]	–
CC(=O)CSc1nc2c(c(=O)[nH]c(=O)n2C)n1Cc1cccc(Br)c1	–	inconclusive: 18.4 µM [falling, single point]	–
COc1ccccc1N(CC(O)CN1C(=O)NC(C)(C)C1=O)S(=O)(=O)c1ccc(C)cc1 (configuration not stated)	–	inconclusive: 32.6 µM [falling, partial curve, poor fit]	–
